In the supplement of paper PMC10849652:
The list shows a part of the results.

Amino acid sequences for entries named in this document (tags omitted). A change or cut given only in a name is not applied to a line headed by its entry.
UniProt Q14493, whole entry, looked up: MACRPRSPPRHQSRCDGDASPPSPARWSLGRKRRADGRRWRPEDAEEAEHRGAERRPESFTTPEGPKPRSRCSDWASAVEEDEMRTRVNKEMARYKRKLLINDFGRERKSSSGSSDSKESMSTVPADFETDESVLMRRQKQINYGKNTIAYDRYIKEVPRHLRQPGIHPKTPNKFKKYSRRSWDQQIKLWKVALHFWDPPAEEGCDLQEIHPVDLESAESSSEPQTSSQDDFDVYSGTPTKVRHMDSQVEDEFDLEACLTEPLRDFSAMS
UniProt P16260: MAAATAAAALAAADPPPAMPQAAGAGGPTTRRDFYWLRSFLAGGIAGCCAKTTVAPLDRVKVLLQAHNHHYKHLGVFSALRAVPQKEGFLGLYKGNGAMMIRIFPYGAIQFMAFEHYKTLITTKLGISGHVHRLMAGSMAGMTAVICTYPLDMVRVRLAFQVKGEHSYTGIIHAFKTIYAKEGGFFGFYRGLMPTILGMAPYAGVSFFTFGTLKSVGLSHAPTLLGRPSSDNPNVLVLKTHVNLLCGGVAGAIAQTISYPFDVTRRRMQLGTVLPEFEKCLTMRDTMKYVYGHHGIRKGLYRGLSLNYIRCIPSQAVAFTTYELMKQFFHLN
UniProt P12236: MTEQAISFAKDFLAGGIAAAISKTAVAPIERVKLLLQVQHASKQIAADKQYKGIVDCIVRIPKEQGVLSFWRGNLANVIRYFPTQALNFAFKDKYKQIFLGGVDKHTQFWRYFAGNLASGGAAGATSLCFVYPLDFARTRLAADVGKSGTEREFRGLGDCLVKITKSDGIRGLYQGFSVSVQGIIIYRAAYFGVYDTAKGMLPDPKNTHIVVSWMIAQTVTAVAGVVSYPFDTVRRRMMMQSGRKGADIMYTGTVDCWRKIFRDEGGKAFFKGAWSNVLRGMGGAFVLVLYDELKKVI
UniProt Q9H2D1: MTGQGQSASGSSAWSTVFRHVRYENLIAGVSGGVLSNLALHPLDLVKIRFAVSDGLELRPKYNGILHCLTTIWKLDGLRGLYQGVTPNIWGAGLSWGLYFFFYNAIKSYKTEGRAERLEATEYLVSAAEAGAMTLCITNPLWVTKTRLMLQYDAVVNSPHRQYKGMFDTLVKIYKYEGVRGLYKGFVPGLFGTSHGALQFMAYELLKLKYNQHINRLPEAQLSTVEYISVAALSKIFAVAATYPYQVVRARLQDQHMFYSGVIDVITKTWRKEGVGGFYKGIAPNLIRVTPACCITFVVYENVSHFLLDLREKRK
UniProt Q9Y289: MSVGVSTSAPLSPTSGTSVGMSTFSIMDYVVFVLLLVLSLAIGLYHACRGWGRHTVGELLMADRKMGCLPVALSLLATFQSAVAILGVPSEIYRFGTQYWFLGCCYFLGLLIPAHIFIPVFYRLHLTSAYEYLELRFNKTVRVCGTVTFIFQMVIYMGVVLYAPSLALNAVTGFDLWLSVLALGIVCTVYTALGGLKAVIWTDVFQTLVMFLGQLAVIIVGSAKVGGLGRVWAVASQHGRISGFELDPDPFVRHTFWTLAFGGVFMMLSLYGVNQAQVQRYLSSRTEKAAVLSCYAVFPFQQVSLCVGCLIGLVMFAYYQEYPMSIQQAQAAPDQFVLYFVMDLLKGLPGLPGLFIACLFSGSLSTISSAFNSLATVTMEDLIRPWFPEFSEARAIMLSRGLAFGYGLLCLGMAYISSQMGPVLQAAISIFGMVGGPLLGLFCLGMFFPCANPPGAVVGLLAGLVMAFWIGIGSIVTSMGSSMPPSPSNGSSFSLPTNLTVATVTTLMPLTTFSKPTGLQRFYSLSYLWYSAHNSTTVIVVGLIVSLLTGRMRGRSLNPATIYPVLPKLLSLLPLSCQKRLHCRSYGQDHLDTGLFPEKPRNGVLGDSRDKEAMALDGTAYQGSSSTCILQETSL
UniProt Q9BXS9: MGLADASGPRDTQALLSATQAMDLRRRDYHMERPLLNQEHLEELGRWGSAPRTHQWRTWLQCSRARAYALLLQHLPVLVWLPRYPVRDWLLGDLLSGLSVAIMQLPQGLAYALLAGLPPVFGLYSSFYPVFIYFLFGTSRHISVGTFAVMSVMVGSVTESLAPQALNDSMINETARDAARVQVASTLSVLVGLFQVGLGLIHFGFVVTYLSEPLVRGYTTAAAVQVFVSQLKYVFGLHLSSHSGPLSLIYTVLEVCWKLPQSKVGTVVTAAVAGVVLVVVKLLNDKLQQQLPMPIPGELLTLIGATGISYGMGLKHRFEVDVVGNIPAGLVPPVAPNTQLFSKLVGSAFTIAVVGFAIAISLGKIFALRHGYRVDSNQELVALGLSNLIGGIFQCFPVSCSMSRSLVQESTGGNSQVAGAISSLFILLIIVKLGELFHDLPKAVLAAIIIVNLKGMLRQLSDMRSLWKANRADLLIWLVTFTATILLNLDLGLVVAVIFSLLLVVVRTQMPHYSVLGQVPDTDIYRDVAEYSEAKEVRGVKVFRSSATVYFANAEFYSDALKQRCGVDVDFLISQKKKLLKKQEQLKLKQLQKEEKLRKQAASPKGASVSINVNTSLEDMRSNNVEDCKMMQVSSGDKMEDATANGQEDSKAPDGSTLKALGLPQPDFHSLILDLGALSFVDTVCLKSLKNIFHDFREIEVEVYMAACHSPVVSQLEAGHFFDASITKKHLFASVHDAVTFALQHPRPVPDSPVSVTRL
UniProt O43772: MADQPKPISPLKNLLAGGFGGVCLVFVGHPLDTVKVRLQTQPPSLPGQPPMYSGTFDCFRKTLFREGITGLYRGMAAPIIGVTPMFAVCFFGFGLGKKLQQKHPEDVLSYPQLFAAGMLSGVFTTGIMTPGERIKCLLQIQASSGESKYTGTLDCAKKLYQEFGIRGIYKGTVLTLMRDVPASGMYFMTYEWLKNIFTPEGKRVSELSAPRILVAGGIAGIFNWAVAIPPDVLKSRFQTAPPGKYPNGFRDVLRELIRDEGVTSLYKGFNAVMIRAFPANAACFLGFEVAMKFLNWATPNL
UniProt Q6KCM7: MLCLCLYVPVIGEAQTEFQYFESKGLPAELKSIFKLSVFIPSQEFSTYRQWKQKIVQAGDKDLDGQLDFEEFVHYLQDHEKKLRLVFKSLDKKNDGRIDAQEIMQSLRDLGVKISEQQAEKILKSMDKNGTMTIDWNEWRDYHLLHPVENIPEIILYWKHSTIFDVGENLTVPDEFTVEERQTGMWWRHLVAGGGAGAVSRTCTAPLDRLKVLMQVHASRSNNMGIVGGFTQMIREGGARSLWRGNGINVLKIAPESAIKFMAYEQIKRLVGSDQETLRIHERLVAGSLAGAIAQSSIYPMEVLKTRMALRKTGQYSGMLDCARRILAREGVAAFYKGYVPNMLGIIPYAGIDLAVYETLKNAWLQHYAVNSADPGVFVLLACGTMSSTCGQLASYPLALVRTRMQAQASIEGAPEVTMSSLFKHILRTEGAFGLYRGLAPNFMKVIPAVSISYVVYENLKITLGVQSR
UniProt Q96GZ6: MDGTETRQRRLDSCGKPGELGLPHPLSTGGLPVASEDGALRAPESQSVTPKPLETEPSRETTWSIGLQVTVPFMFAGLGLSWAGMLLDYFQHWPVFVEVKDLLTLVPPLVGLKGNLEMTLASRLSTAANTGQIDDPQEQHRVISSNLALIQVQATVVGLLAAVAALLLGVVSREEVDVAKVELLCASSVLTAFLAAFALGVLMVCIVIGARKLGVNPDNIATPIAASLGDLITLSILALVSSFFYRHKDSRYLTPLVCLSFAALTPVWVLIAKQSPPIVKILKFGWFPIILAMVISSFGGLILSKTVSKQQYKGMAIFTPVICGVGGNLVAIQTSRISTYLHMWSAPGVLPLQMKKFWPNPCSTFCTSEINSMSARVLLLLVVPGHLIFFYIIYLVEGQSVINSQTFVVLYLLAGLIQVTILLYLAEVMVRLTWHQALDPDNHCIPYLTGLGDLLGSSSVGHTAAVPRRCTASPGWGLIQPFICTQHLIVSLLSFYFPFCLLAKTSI
UniProt Q9Y2D2: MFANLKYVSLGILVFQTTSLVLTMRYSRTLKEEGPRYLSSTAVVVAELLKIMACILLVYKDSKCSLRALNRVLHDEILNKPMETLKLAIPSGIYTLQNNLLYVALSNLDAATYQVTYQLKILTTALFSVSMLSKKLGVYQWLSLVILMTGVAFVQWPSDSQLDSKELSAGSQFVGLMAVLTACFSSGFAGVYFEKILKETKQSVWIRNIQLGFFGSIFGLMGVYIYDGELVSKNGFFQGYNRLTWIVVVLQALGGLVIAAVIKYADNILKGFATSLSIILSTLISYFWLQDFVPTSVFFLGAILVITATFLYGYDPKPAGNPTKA
UniProt Q96BI1: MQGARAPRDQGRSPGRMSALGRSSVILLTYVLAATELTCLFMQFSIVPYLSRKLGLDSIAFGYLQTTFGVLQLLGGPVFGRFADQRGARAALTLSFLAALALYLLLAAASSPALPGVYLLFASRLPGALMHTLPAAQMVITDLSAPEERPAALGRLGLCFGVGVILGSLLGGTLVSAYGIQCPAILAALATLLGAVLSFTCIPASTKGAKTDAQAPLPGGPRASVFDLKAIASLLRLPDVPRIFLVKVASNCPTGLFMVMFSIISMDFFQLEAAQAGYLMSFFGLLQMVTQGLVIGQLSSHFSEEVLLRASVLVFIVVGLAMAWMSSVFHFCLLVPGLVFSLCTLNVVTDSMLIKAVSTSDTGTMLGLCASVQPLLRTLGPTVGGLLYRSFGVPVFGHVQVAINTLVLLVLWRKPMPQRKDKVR
UniProt Q9H1N7: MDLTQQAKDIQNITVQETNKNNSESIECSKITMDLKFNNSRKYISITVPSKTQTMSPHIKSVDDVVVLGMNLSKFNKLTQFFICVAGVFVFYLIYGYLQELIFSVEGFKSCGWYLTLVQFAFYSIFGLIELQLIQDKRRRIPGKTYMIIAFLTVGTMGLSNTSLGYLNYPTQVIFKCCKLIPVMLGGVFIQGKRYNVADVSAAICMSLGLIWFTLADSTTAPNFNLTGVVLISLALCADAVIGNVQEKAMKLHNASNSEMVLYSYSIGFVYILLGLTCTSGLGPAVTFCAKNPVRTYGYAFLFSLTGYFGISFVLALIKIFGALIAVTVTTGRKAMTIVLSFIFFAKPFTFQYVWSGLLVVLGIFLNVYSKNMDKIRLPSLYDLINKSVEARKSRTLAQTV
UniProt P0CK96: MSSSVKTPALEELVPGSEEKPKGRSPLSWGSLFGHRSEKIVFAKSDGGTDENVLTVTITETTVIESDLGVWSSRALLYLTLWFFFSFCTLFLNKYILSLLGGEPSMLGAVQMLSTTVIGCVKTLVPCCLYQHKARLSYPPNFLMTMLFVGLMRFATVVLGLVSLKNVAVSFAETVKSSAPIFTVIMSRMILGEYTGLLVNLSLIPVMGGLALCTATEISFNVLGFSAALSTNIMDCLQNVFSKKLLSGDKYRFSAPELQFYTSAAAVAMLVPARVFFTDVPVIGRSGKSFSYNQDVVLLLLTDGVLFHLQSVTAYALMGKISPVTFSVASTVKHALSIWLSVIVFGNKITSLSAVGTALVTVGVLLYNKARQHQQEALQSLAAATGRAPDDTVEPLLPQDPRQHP
UniProt Q9H2X9: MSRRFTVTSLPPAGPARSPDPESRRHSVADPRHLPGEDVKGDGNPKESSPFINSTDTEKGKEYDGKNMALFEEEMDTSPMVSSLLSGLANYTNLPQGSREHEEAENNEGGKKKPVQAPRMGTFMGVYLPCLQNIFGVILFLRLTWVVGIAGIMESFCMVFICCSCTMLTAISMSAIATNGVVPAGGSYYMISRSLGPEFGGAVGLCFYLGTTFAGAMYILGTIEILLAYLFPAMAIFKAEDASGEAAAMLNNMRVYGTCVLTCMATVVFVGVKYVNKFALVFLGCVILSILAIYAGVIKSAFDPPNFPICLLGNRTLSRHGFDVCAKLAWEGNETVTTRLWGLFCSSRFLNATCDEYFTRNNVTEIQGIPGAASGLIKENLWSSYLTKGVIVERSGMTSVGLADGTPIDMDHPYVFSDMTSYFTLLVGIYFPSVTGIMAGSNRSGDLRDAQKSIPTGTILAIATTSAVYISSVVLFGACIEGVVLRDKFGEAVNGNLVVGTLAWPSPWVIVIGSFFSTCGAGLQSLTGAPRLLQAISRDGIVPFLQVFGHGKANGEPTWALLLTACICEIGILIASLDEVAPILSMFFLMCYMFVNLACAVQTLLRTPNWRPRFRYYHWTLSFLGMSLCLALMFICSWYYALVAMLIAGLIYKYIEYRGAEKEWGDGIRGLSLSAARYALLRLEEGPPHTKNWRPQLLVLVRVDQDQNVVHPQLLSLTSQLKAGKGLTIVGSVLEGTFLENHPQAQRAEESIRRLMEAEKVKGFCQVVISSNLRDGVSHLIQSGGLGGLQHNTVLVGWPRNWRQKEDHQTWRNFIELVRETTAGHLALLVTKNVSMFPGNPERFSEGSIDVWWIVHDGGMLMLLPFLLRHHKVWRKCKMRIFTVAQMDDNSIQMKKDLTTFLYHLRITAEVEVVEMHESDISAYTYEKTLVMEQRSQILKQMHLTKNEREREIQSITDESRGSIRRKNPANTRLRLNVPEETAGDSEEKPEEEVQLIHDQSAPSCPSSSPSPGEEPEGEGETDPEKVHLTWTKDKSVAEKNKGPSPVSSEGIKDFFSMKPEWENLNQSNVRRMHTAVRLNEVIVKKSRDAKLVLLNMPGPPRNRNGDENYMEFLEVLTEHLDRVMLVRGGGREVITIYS

Key:
Test in all cases: log2 fold change, soluble protein after heating vs DMSO (PISA); higher = thermal stabilisation; K562 cells, 10 uM, 30 min; active = over 0.2 and 3.5 SD of the protein, either way, in both replicates (recomputed)
[1] = compound: NC(=O)Nc1cc(-c2cccc(F)c2)sc1C(=O)N[C@H]1CCCNC1
How it was run: (§1)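 K562 cells at 2×10^6 cells/mL were exposed to 10 μM compound for 30 min, then aliquots were heated for 3 min across 48°C-58°C, pooled, and extracted in PBS containing 0.5% NP-40 at 4°C. The supernatant after 21,000xg for 90 min was taken as soluble protein and measured by TMTpro 16plex LC-MS/MS with channel sums equalised. Thermal stability is reported relative to control samples, with values from duplicates. Fold changes are given on a log2 scale.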

[2] = compound: NC(=O)c1cnc(N[C@@H]2CCCC[C@@H]2N)nc1Nc1cccc(-n2nccn2)c1
How it was run: as §1

[3] = compound: NC1(c2ccc(-c3nc4ccn5c(=O)[nH]nc5c4cc3-c3ccccc3)cc2)CCC1
How it was run: as §1

[4] = compound: NCC(=O)Nc1ccc(-n2nc(C(F)(F)F)cc2-c2ccc3c(ccc4ccccc43)c2)cc1
How it was run: as §1

entinostat = compound: Nc1ccccc1NC(=O)c1ccc(CNC(=O)OCc2cccnc2)cc1 [entinostat]
How it was run: as §1

vorinostat = compound: O=C(CCCCCCC(=O)Nc1ccccc1)NO [vorinostat]
How it was run: as §1

citarinostat = compound: O=C(CCCCCCNC(=O)c1cnc(N(c2ccccc2)c2ccccc2Cl)nc1)NO [citarinostat]
How it was run: as §1

silmitasertib = compound: O=C(O)c1ccc2c(c1)nc(Nc1cccc(Cl)c1)c1ccncc12 [silmitasertib]
How it was run: as §1

[5] = compound: O=C1NC(=O)C(c2cnc3ccccn23)=C1c1cn2c3c(cc(F)cc13)CN(C(=O)N1CCCCC1)CC2
How it was run: as §1

[6] = compound: c1cc(OCCN2CCCCC2)cc(-c2n[nH]c3ccc(-c4nnc[nH]4)cc23)c1
How it was run: as §1

Target	log2 fold change [1]	log2 fold change [2]	log2 fold change [3]	log2 fold change [4]	log2 fold change (entinostat)	log2 fold change (vorinostat)	log2 fold change (citarinostat)	log2 fold change (silmitasertib)	log2 fold change [5]	log2 fold change [6]
SLBP (UniProt Q14493)	inactive: 0.043	inactive: 0.051	inactive: -0.028	inactive: -0.005	inactive: 0.018	inactive: 0.085	inactive: 0.035	inactive: 0.007	inactive: 0.064	inactive: 0.035
SLC25A16 (UniProt P16260)	inactive: -0.018	inactive: 0.043	inactive: -0.082	inactive: 0	inactive: -0.085	inactive: 0.033	inactive: -0.035	inactive: 0.009	inactive: 0.078	inactive: 0.023
SLC27A4 (UniProt Q6P1M0)	inactive: -0.086	inactive: -0.043	inactive: -0.034	inactive: 0.016	inactive: -0.024	inactive: 0	inactive: 0.043	inactive: 0.022	inactive: -0.073	inactive: -0.1
SLC39A7 (UniProt Q92504)	inactive: -0.04	inactive: -0.077	inactive: 0.015	inactive: -0.04	inactive: -0.061	inactive: 0.077	inactive: -0.015	inactive: 0.004	inactive: -0.037	inactive: -0.041
SLC25A26 (UniProt Q70HW3)	inactive: -0.066	inactive: 0.006	inactive: -0.142	inactive: -0.084	inactive: -0.079	inactive: -0.056	inactive: -0.027	inactive: 0.108	inactive: 0.135	inactive: -0.066
SLC25A6 (UniProt P12236)	inactive: -0.004	inactive: -0.025	inactive: 0.016	inactive: -0.006	inactive: -0.017	inactive: -0.004	inactive: 0.011	inactive: 0.005	inactive: -0.021	inactive: -0.036
SLC25A32 (UniProt Q9H2D1)	inactive: -0.012	inactive: -0.01	inactive: -0.009	inactive: 0.002	inactive: -0.02	inactive: -0.037	inactive: -0.003	inactive: 0.062	inactive: -0.061	inactive: -0.072
SLC5A6 (UniProt Q9Y289)	inactive: -0.093	inactive: 0.082	inactive: 0.053	inactive: 0.013	inactive: -0.004	inactive: -0.008	inactive: -0.058	inactive: -0.104	inactive: 0.036	inactive: -0.053
SLC26A6 (UniProt Q9BXS9)	inactive: 0.015	inactive: 0.007	inactive: 0.062	inactive: -0.008	inactive: -0.068	inactive: -0.234	inactive: -0.056	inactive: 0.058	inactive: -0.032	inactive: -0.07
SLC25A33 (UniProt Q9BSK2)	inactive: 0.039	inactive: 0.027	inactive: 0.011	inactive: -0.026	inactive: 0.03	inactive: -0.044	inactive: -0.019	inactive: -0.004	inactive: -0.006	inactive: -0.057
SLC25A20 (UniProt O43772)	inactive: -0.033	inactive: -0.029	inactive: -0.008	inactive: -0.01	inactive: -0.032	inactive: -0.026	inactive: 0.037	inactive: 0.03	inactive: 0.001	inactive: -0.008
SLC25A21 (UniProt Q9BQT8)	inactive: -0.028	inactive: -0.042	inactive: -0.025	inactive: -0.083	inactive: -0.032	inactive: -0.038	inactive: -0.015	inactive: 0.033	inactive: -0.019	inactive: -0.045
SLC12A4 (UniProt Q9UP95)	inactive: 0.024	inactive: 0.067	inactive: -0.126	inactive: 0.013	inactive: 0.014	inactive: -0.001	inactive: 0.031	inactive: 0	inactive: -0.032	inactive: -0.036
SLC6A6 (UniProt P31641)	inactive: -0.099	inactive: 0.03	inactive: 0.024	inactive: -0.19	inactive: -0.031	inactive: -0.059	inactive: 0.065	inactive: 0.039	inactive: 0.086	active: 0.269
SLC6A8 (UniProt P48029)	inactive: -0.019	inactive: 0.101	inactive: 0.105	inactive: -0.054	inactive: -0.121	inactive: -0.135	inactive: -0.045	inactive: 0.075	inactive: -0.049	inactive: -0.027
SLC30A5 (UniProt Q8TAD4)	inactive: 0.004	inactive: -0.102	inactive: -0.152	inactive: -0.116	inactive: 0.05	inactive: 0.025	inactive: 0.003	inactive: -0.022	inactive: -0.1	inactive: 0.001

Target	log2 fold change [1]	log2 fold change [2]	log2 fold change [3]	log2 fold change [4]	log2 fold change (entinostat)	log2 fold change (vorinostat)	log2 fold change (citarinostat)	log2 fold change (silmitasertib)	log2 fold change [5]	log2 fold change [6]
SLC43A1 (UniProt O75387)	inactive: 0.002	inactive: 0.058	inactive: 0.025	inactive: -0.093	inactive: -0.086	inactive: -0.067	inactive: 0.016	inactive: -0.014	inactive: 0.005	inactive: -0.014
SLC1A5 (UniProt Q15758)	inactive: -0.057	inactive: 0.117	inactive: 0.155	inactive: 0.03	inactive: -0.041	inactive: -0.039	inactive: -0.003	inactive: -0.016	inactive: -0.001	inactive: -0.03
SLC25A25 isoform 3 (UniProt Q6KCM7)	inactive: -0.013	inactive: 0.003	inactive: -0.029	inactive: 0.032	inactive: 0.001	inactive: -0.017	inactive: 0.008	inactive: -0.029	inactive: -0.01	inactive: -0.014
SLC2A3 (UniProt P11169)	inactive: -0.024	inactive: 0.048	inactive: 0.072	inactive: 0.015	inactive: -0.004	inactive: 0.015	inactive: 0.035	inactive: -0.001	inactive: 0.054	inactive: -0.063
SLC41A3 isoform 9 (UniProt Q96GZ6)	inactive: 0.11	inactive: 0.009	inactive: -0.046	–	inactive: 0.244	inactive: -0.163	inactive: 0.017	inactive: 0.188	inactive: 0.036	inactive: -0.157
SLC35A3 isoform 2 (UniProt Q9Y2D2)	inactive: -0.07	inactive: -0.09	inactive: 0.041	–	inactive: -0.011	inactive: -0.115	inactive: -0.075	inactive: -0.082	inactive: -0.081	inactive: -0.049
SLC22A18 (UniProt Q96BI1)	inactive: -0.026	–	inactive: 0.021	inactive: -0.183	inactive: -0.044	inactive: -0.073	inactive: -0.056	inactive: -0.001	inactive: 0.02	inactive: -0.05
SLC25A30 (UniProt Q5SVS4)	inactive: 0.055	inactive: 0.039	–	inactive: 0.027	inactive: 0.043	inactive: -0.11	inactive: -0.01	–	–	inactive: -0.004
SLC35B3 (UniProt Q9H1N7)	inactive: 0.005	inactive: -0.043	inactive: 0.134	inactive: 0.006	inactive: -0.024	–	inactive: 0	inactive: 0.174	inactive: -0.049	inactive: -0.046
SLC35A1 (UniProt P78382)	inactive: -0.05	inactive: -0.015	inactive: -0.069	inactive: 0.1	inactive: -0.065	–	inactive: 0.047	inactive: 0.021	inactive: 0.028	inactive: -0.106
SLC25A44 (UniProt Q96H78)	inactive: 0.007	inactive: -0.031	inactive: -0.062	inactive: 0.011	inactive: -0.015	inactive: -0.034	inactive: 0	inactive: 0.19	inactive: -0.026	inactive: -0.05
SLC35E2B (UniProt P0CK96)	inactive: -0.067	–	inactive: -0.074	inactive: 0.083	inactive: 0.254	–	–	inactive: 0.06	–	–
SLC4A7 isoform 7 (UniProt Q9Y6M7)	inactive: 0.026	inactive: 0.052	inactive: 0.213	inactive: 0.115	inactive: -0.011	–	inactive: -0.033	inactive: -0.026	inactive: 0.026	inactive: -0.024
SLC20A1 (UniProt Q8WUM9)	inactive: -0.089	inactive: -0.032	inactive: 0	inactive: -0.098	inactive: -0.065	inactive: -0.064	inactive: -0.015	inactive: 0.006	inactive: 0.062	inactive: -0.109
SLC12A5 (UniProt Q9H2X9)	inactive: -0.111	inactive: -0.077	inactive: -0.064	inactive: -0.043	inactive: -0.05	–	inactive: 0.129	inactive: 0.05	inactive: -0.032	inactive: -0.062

In another format: entries from further up.

| Target | log2 fold change [1] | log2 fold change [2] | log2 fold change [3] | log2 fold change [4] | log2 fold change (entinostat) | log2 fold change (vorinostat) | log2 fold change (citarinostat) | log2 fold change (silmitasertib) | log2 fold change [5] | log2 fold change [6] |
| --- | --- | --- | --- | --- | --- | --- | --- | --- | --- | --- |
| SLC2A3 (UniProt P11169) | inactive: -0.024 | inactive: 0.048 | inactive: 0.072 | inactive: 0.015 | inactive: -0.004 | inactive: 0.015 | inactive: 0.035 | inactive: -0.001 | inactive: 0.054 | inactive: -0.063 |
| SLC25A44 (UniProt Q96H78) | inactive: 0.007 | inactive: -0.031 | inactive: -0.062 | inactive: 0.011 | inactive: -0.015 | inactive: -0.034 | inactive: 0 | inactive: 0.19 | inactive: -0.026 | inactive: -0.05 |
